Values quoted from earlier work in US20050255458A1, “Drug discovery assays based on the biology of chronic disease” (priority 2002, published 2005).

Columns and labels:
[1] = test system: β cell; conditions: 40 mg/kg per day for five consecutive days; cited from earlier work
[2] = test system: β cell; conditions: cited from earlier work

SMILES | day of first peak in β cell apoptosis [1] [days] | day of second peak in β cell apoptosis [1] [days] | shape of curve of the sum of β cell apoptosis ([2]; 3-week old mice) | shape of curve of the sum of β cell apoptosis ([2]; 12-week mice)
CN(N=O)C(=O)N[C@H]1C(O)O[C@H](CO)[C@@H](O)[C@@H]1O (mixture of isomers) [STZ, streptozotocin] | 5 | 11 |  | 
O=P1(N(CCCl)CCCl)NCCCO1 (stereo not shown) [CY, cyclophosphamide] |  |  | single peak | two peak curve

Where two headings read alike, the source gives them in different places.
